Measurements published in patent US9061016B2, “Aqueous solution comprising 3-quinuclidinones for the treatment hyperproliferative, autoimmune and heart disease” (APREA AB, priority 2010, dated 2015).
For at least one compound, name, drawing or mass did not settle the structure.

Tests used:
[1] = HPLC-UV before and after autoclaving of APR-246 solution; format: physicochemical; conditions: solution 150 mg/ml; for APR-246 (%) After sterilization: 20 min
Experimental: (§1) HPLC—Chromatography was performed on an Agilent 1100/1200 series HPLC system using a Purospher Star RP-18e, 5 μm (250×4.6) mm Column at 20° C. Sample temperature was set to 5° C. by a thermostat. Detection was accomplished by means of a UV/VIS DAD detector at 210 nm. The flow rate was set to 1.0 mL/min and the injection volume was 10 μL. The mobile phase used was a gradient of phosphate buffer (A) in acetonitrile (B): 0-5 min: 90% A, 5-20 min: 70% A, 20-35 min: 20% A, 35-45 min: 90% A. The calibration was obtained using pure APR-246 standard solutions freshly prepared prior to analyses. Data acquisition was performed electronically. The method has been validated. The APR-246 drug product was a sterile concentrate for solution for infusion. The solution was sterilised by filtration according to Ph Eur standard method and aseptically filled in vials.

[2] = Long term stability studies of APR-246 in aqueous system; format: physicochemical; conditions: 150 mg/mL aqueous, pH 3.9-4.0
Experimental: APR-246 stock solutions were manufactured at a concentration of about 150 mg/mL at pH 3.9. The finished product consisted of 21.5-22.0 mL of drug product aseptically filled into presterilized 50 mL glass vials. The manufacturing was in compliance with Good Manufacturing Practices regulations. […] HPLC—Chromatography was performed on an Agilent 1100/1200 series HPLC system using a Purospher Star RP-18e, 5 μm (250×4.6) mm Column at 20° C. Sample temperature was set to 5° C. by a thermostat. Detection was accomplished by means of a UV/VIS DAD detector at 210 nm. The flow rate was set to 1.0 mL/min and the injection volume was 10 μL. The mobile phase used was a gradient of phosphate buffer (A) in acetonitrile (B): 0-5 min: 90% A, 5-20 min: 70% A, 20-35 min: 20% A, 35-45 min: 90% A. The calibration was obtained using pure APR-246 standard solutions freshly prepared prior to analyses. Data acquisition was performed electronically. The method has been validated.

[3] = system: mutant p53 osteosarcoma cells SaOS-2-His273; experiment: p53 mutant xenograft tumors in SCID mice; format: in vivo; conditions: 100 mg/kg intravenously, twice a day, 3-4 days/week
[4] = Stability studies of APR-246 in an aqueous system at different pH; format: physicochemical
Experimental: Several aqueous formulations of APR-246 and of the hydrochloric acid addition salt of APR-246 were prepared and tested for stability.
The stability increases with decreased pH. To establish a suitable pH for APR-246 with respect to stability, studies with the drug substance in different solutions at different pH were performed.
as §1, with “validated.” for “validated. The APR-246 drug product was a sterile concentrate for solution for infusion. The solution was sterilised by filtration according to Ph Eur standard method and aseptically filled in vials.”

COCC1(CO)C(=O)C2CCN1CC2 (stereo not shown) [APR-246, 2-(hydroxymethyl)-2-(methoxymethyl)quinuclidin-3-one]
APR-246 (%) After sterilization ([1]; pH 4.0, autoclaving 121° C.): 86%
APR-246 (%) initial ([1]; pH 4.0, before autoclaving): 94.3%
APR-246 (%) After sterilization ([1]; pH 4.5, autoclaving 121° C.): 78.5%
APR-246 (%) initial ([1]; pH 4.5, before autoclaving): 94%
Content of APR-246 in solution ([2]; Batch 1, 5° C., 1 month): 99.6%
Content of APR-246 in solution ([2]; Batch 1, 5° C., 3 months): 99.3%
Content of APR-246 in solution ([2]; Batch 1, 5° C., 6 months): 99.4%
Content of APR-246 in solution ([2]; Batch 1, 5° C., 9 months): 99.3%
Content of APR-246 in solution ([2]; Batch 1, 5° C., 12 months): 99.3%
Content of APR-246 in solution ([2]; Batch 1, 5° C., 24 months): 98.9%
Content of APR-246 in solution ([2]; Batch 1, 5° C., Initial): 99.5%
Content of APR-246 in solution ([2]; Batch 1, 25° C., 1 month): 99.2%
Content of APR-246 in solution ([2]; Batch 1, 25° C., 3 months, formation of solids): 98.7^1%
Content of APR-246 in solution ([2]; Batch 1, 25° C., 6 months, formation of solids): 97.2^1%
Content of APR-246 in solution ([2]; Batch 1, 25° C., 12 months, formation of solids): 96.3^1%
Content of APR-246 in solution ([2]; Batch 1, 25° C., Initial): 99.5%
Content of APR-246 in solution ([2]; Batch 1, 40° C., 1 month): 97.2%
Content of APR-246 in solution ([2]; Batch 1, 40° C., 3 months, formation of solids): 94.0^1%
Content of APR-246 in solution ([2]; Batch 1, 40° C., Initial): 99.5%
Content of APR-246 in solution ([2]; Batch 2, 5° C., 1 month): 99.5%
Content of APR-246 in solution ([2]; Batch 2, 5° C., 3 months): 99.7%
Content of APR-246 in solution ([2]; Batch 2, 5° C., 6 months): 99.6%
Content of APR-246 in solution ([2]; Batch 2, 5° C., 9 months): 99.6%
Content of APR-246 in solution ([2]; Batch 2, 5° C., 12 months): 99.6%
Content of APR-246 in solution ([2]; Batch 2, 5° C., Initial): 99.8%
Content of APR-246 in solution ([2]; Batch 2, 25° C., 1 month): 99.2%
Content of APR-246 in solution ([2]; Batch 2, 25° C., 3 months, formation of solids): 98.6^1%
Content of APR-246 in solution ([2]; Batch 2, 25° C., 6 months, formation of solids): 98.0^1%
Content of APR-246 in solution ([2]; Batch 2, 25° C., 9 months, formation of solids): 98.0^1%
Content of APR-246 in solution ([2]; Batch 2, 25° C., Initial): 99.8%
mean tumor volume in control animals compared with animals treated with APR-246 ([3]; end of the treatment period, control PBS): more than three times as high
anti-cancer effect (differences in tumor volumes, Mann-Whitney test) ([3]; vs PBS): statistically significant anti-cancer effect
APR-246 content in solution ([4]; 18 mg/ml in saline, pH 4, 4° C., after 48 hours): 99.6%
APR-246 content in solution ([4]; 18 mg/ml in saline, pH 4, 25° C., after 48 hours): 99.5%
APR-246 content in solution ([4]; 18 mg/ml in saline, pH 5, 4° C., after 48 hours): 99.3%
APR-246 content in solution ([4]; 18 mg/ml in saline, pH 5, 25° C., after 48 hours): 99.3%
APR-246 content in solution ([4]; 18 mg/ml in saline, pH 6, 4° C., after 48 hours): 98.0%
APR-246 content in solution ([4]; 18 mg/ml in saline, pH 6, 25° C., after 48 hours): 92.6%
APR-246 content in solution ([4]; 18 mg/ml in saline, pH 7, 4° C., after 48 hours): 88.7%
APR-246 content in solution ([4]; 18 mg/ml in saline, pH 7, 25° C., study discontinued after 12 hours): 88.5^1%
APR-246 content in solution ([4]; 18 mg/ml in saline, pH 9, 4° C., after 48 hours): 86.8%
APR-246 content in solution ([4]; 18 mg/ml in saline, pH 9, 25° C., study discontinued after 6 hours): 88.1^3%
APR-246 content in solution ([4]; 80-120 mg/ml in water, pH 4, 4° C., after 48 hours): 99.4%
APR-246 content in solution ([4]; 80-120 mg/ml in water, pH 4, 25° C., after 48 hours): 99.3%
APR-246 content in solution ([4]; 80-120 mg/ml in water, pH 5, 4° C., after 48 hours): 99.2%
APR-246 content in solution ([4]; 80-120 mg/ml in water, pH 5, 25° C., after 48 hours): 99.0%
APR-246 content in solution ([4]; 80-120 mg/ml in water, pH 6, 4° C., after 48 hours): 98.6%
APR-246 content in solution ([4]; 80-120 mg/ml in water, pH 6, 25° C., after 48 hours): 93.0%
APR-246 content in solution ([4]; 80-120 mg/ml in water, pH 7, 4° C., after 48 hours): 92.4%
APR-246 content in solution ([4]; 80-120 mg/ml in water, pH 7, 25° C., study discontinued after 12 hours): 89.5^1%
APR-246 content in solution ([4]; 80-120 mg/ml in water, pH 9, 4° C., after 48 hours): 89.1%
APR-246 content in solution ([4]; 80-120 mg/ml in water, pH 9, 25° C., study discontinued after 9 hours): 88.9^2%
